From patent US20250129329A1, “CULTURE MEDIUM FOR HEPATOMA ORGANOID CULTURE, HEPATOMA ORGANOID CULTURE METHOD, AND APPLICATION THEREOF” (PRECEDO PHARMACEUTICALS CO., LTD, priority 2021, published 2025)
Some results were stated once for a whole list of compounds, not compound by compound.

Test system: hepatoma organoids (samples GL-003, GL-004)
Experiment: Effects of different concentrations of factors in the culture medium on proliferation of hepatoma organoids (Example 2)
Assay type: cell-based, human
Details: added to HC-3 medium lacking that factor; organoid diameter ratio to Blank Control after 10 days, FIGS. 1A-1K
Procedure: Primary liver cancer cells were obtained from intraoperative tissue samples (Nos. GL-003, GL-004) in accordance with the method described in Section (2), Example 1, and the organoids were cultured using the culture medium formulations as shown in Table 2 below.
When using the culture medium of Formulation 1, to a 96-well plate inoculated with organoids was added the prepared B27 in addition to the medium of Formulation 1, with 200 μL per well, such that the final concentrations of B27 were 1:25, 1:50 and 1:100, respectively; a well of Blank Control (BC) was set using the medium of Formulation 1. The final concentrations of other factors added in this series of culture mediums were the same as those in HC-3 culture medium. The experiments of Formulations 1-11 below were also conducted in the same way and will not be described in details.
When using the culture medium of Formulation 2, to a 96-well plate inoculated with organoids was added the prepared HGF in addition to the medium of Formulation 2, with 200 μL per well, such that the final concentrations of HGF were 1 ng/ml, 5 ng/mL and 25 ng/mL, respectively; a well of Blank Control (BC) was set using the medium of Formulation 2. […]

Substance: hepatocyte growth factor, HGF: growth factor medium additive, supplier R&D
- preferable amount in the culture medium for promoting organoid proliferation: 1 to 25 ng/mL
